Results reported in publication PMC8705706, “Benzimidazole Derivatives as New and Selective Inhibitors of Arginase from Leishmania mexicana with Biological Activity against Promastigotes and Amastigotes” (International Journal of Molecular Sciences, 2021).

Key:
[1] = tested on: Promastigotes of L. mexicana (MNYC/BZ/62/M379); assay: Biological activity against promastigotes, resazurin; format: cell-based, Leishmania mexicana; conditions: SI = CC50/IC50, J774.2 versus promastigotes
Description: Promastigotes of L. mexicana (MNYC/BZ/62/M379 reference strain) were grown in Schneider’s medium supplemented with fetal bovine serum 10% (v/v), ampicillin (100 U/mL)/streptomycin (100 µg/mL). Parasites were collected at log phase to assess the compounds and 5 × 10^5 promastigotes were seeded in a 96-wells plate. Compounds were previously dissolved in dimethyl sulfoxide (DMSO) up to a concentration of 1 mg/mL. Thereafter, serial dilutions were made with culture medium from 100 µg/mL to 0.8 µg/mL and then they were added to the wells by triplicates. Parasites non treated and treated with Glucantime, Amphotericin B and Miltefosine were included as […]. Parasites were incubated at 26 °C during 48 h and resazurin 2.5 mM was added at the end into each well. Afterwards, fluorescence intensity was measured with excitation/emission 535/590 nm in a spectrofluorometer (Infinite 200, Tecan Group Ltd., Mannedorf, Switzerland). Finally, half maximal inhibitory concentration (IC50) was determined through a Probit analysis. The assays were made by triplicate in 3 independent experiments.

[2] = tested on: amastigote of L. mexicana; assay: Biological activity against intracellular amastigotes in J774.2 macrophages, resazurin; format: cell-based, Leishmania mexicana; conditions: SI = CC50/IC50, J774.2 versus amastigotes
Description: Biological activity of the benzimidazole derivatives was also evaluated against the amastigote of L. mexicana. For this, 5 × 10^4 murine macrophages J774.2 (ATCC® TIB-67) per well were grown in a plate of 96 wells with RPMI medium at […], 5% CO2 during 24 h. The cells were infected with promastigotes in log phase in a 10:1 proportion (parasite: macrophage) and they were incubated at 37 °C, 5% CO2 during 24–48 h. A wash with RPMI medium to remove the not-infected promastigotes was made. Compounds were added in a serial dilution from 100 µg to 0.8 µg/mL in triplicate and were incubated at 37 °C, 5% CO2 for 48 h. Glucantime, Amphotericin B and Miltefosine were used as reference drugs. Then, the cells were lysed with a non-complemented Schneider’s medium lysis solution with SDS 0.01%, after incubating for 20 min the lysis solution was removed. Afterwards, Schneider medium was added incubating at 26 °C during four days at room temperature to differentiate intracellular amastigotes from free amastigotes. Thereafter, 20 µL of resazurin 2.5 mM was added to each well and incubated during 3 h. Fluorescence intensity and IC50 were measured as described for promastigotes. The assays were made by triplicate in 3 independent experiments.

COC(=O)Nc1nc2cc(Cl)ccc2n1C [Compound 1, Methyl (5-chloro-1-methyl-1H-benzimidazol-2-yl)carbamate]
SI Promastigotes [1]: 6.5
SI Amastigotes [2]: 13

CSc1nc2cc(C(N)=O)c(Cl)cc2[nH]1 [Compound 2, 6-Chloro-2-(methylthio)-1H-benzimidazole-5-carboxamide]
SI Promastigotes [1]: 3.1
SI Amastigotes [2]: 4.1
